Results on 37 targets are retold here after the supplement of paper PMC11732987, “Enantioselective OTUD7B fragment discovery through chemoproteomics screening and high-throughput optimisation” (Communications Chemistry, 2025).

Sequences of proteins named here, by UniProt entry; tags and fusion partners are left off. A change or cut given only in a name is not applied to a line headed by its entry. Residues count along the entry.
UniProt Q8IWA0: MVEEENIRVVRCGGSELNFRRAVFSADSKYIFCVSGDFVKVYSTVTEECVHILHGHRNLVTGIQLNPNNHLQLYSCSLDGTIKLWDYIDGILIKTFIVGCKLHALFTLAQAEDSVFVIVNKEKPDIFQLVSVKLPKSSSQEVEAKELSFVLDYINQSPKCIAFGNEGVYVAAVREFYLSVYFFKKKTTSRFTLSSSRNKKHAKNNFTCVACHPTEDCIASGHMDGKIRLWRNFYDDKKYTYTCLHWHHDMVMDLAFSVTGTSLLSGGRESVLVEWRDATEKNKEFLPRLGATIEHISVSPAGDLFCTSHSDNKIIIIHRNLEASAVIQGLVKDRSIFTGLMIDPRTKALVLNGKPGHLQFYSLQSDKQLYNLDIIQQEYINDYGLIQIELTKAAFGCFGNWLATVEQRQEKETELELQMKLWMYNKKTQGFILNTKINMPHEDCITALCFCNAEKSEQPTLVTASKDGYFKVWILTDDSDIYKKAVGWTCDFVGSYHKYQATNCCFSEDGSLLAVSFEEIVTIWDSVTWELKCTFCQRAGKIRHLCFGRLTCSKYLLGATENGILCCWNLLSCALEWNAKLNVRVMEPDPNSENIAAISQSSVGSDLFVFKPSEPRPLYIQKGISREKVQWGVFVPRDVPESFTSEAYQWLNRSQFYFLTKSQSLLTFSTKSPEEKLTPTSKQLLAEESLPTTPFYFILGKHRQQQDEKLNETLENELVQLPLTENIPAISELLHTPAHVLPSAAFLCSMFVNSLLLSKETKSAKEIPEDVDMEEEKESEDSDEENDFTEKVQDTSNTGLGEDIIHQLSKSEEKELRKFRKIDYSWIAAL
UniProt Q5VIR6: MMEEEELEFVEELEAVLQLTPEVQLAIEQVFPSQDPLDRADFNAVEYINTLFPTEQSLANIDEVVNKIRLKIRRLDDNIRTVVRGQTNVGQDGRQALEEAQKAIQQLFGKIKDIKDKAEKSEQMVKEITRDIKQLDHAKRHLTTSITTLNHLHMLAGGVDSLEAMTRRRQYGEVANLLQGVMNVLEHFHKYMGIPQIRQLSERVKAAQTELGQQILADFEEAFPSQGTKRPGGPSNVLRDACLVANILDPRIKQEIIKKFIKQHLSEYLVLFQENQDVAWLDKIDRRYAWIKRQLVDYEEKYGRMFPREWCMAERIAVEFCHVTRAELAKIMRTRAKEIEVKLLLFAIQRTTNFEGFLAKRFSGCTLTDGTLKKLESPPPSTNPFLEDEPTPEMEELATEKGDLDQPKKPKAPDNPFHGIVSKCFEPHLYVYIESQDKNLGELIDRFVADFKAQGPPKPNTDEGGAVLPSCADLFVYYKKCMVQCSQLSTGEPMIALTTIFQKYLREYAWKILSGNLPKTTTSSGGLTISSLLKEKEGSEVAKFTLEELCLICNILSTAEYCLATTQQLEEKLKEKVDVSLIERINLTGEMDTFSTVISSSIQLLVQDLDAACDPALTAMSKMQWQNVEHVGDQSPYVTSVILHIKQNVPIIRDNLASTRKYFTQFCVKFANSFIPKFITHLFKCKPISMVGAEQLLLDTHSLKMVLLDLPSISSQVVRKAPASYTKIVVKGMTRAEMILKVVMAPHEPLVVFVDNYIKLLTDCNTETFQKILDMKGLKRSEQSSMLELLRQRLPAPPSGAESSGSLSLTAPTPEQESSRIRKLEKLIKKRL
UniProt O75083: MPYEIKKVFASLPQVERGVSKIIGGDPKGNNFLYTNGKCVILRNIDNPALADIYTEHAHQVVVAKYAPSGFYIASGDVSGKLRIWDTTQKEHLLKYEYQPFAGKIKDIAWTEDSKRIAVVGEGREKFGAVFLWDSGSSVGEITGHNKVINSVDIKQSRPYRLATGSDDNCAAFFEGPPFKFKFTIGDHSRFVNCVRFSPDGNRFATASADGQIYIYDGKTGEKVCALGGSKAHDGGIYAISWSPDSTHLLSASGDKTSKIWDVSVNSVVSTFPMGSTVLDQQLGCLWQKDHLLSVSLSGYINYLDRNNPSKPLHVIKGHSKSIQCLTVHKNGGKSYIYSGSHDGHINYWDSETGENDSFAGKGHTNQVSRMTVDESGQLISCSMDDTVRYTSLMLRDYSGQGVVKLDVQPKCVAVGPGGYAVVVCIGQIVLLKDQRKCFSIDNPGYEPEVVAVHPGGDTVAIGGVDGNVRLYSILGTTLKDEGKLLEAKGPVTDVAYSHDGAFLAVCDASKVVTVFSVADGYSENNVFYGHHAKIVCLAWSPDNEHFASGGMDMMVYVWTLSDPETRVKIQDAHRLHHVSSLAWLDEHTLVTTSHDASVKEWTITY
UniProt P07947: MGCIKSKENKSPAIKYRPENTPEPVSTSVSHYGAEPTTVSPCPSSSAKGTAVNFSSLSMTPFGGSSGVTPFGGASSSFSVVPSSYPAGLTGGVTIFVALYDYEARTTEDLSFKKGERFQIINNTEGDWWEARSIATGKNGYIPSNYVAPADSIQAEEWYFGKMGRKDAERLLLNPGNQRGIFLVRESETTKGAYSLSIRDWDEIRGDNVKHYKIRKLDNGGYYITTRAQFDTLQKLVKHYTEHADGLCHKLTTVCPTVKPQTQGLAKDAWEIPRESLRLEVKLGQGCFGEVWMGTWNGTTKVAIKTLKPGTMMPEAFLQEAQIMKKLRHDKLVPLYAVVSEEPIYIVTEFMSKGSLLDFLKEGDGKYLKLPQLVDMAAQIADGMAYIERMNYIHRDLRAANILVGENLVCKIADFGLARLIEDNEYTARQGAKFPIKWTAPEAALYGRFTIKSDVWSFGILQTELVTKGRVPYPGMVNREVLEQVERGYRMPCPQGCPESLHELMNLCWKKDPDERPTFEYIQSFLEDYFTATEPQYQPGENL
UniProt Q9NUA8: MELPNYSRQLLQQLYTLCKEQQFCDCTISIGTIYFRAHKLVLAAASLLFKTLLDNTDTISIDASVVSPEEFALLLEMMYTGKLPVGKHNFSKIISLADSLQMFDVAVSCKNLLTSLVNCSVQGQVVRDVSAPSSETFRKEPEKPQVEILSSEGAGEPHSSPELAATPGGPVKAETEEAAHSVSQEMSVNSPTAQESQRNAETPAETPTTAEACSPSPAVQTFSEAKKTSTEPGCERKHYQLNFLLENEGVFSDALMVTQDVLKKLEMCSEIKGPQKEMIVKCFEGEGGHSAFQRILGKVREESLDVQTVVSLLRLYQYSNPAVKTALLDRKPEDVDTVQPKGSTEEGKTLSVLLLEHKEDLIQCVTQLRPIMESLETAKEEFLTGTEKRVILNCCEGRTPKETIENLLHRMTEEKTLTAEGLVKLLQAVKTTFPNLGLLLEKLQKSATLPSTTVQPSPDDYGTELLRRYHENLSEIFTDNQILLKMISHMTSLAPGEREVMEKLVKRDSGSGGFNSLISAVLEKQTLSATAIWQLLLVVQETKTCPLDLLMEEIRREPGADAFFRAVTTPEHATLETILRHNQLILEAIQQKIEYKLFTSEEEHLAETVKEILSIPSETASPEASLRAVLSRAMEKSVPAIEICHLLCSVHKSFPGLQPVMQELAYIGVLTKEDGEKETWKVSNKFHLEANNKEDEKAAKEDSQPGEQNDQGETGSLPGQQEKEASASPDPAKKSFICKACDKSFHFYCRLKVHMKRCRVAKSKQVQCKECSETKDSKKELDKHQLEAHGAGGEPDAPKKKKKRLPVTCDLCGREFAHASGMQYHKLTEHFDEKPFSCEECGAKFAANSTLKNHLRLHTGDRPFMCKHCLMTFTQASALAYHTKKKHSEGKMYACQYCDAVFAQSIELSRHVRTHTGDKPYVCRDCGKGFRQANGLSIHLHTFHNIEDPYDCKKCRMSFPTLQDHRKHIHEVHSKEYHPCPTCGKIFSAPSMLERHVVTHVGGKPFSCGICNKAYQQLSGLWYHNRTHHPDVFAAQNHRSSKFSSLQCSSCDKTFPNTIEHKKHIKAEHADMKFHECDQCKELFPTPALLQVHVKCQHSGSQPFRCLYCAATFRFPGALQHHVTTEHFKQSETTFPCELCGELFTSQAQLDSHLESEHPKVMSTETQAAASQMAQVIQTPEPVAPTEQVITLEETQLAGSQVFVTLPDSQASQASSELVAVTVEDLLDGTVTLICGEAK
UniProt Q6PJT7: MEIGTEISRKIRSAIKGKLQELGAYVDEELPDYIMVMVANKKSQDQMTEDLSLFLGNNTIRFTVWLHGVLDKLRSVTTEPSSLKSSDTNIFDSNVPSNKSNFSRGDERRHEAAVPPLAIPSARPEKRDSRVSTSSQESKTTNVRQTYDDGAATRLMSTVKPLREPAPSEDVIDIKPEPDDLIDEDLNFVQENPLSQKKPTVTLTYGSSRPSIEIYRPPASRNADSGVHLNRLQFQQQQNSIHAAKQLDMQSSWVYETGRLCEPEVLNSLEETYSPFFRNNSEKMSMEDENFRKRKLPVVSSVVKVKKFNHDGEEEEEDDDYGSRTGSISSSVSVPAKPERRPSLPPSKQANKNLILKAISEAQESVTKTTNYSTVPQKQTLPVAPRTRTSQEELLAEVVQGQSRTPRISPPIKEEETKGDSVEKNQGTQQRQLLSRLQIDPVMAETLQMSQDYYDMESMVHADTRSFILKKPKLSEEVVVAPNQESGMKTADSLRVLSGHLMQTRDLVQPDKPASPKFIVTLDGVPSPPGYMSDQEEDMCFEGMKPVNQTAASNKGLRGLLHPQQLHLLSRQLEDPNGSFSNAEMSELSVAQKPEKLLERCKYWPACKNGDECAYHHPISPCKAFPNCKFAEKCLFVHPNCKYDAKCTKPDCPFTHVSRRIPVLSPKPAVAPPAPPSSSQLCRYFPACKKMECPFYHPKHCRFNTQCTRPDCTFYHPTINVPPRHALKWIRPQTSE
UniProt Q99986, 220-240: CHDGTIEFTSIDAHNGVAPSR
UniProt A8MPS7: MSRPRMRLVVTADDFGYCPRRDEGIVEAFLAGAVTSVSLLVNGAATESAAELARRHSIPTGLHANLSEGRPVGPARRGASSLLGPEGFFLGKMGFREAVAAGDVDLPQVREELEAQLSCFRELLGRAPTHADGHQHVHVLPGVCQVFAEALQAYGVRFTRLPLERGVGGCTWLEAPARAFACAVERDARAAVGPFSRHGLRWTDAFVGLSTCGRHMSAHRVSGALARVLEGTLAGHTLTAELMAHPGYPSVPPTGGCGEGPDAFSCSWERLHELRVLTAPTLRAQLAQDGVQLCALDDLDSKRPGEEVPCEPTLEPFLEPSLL
UniProt Q9H6S0: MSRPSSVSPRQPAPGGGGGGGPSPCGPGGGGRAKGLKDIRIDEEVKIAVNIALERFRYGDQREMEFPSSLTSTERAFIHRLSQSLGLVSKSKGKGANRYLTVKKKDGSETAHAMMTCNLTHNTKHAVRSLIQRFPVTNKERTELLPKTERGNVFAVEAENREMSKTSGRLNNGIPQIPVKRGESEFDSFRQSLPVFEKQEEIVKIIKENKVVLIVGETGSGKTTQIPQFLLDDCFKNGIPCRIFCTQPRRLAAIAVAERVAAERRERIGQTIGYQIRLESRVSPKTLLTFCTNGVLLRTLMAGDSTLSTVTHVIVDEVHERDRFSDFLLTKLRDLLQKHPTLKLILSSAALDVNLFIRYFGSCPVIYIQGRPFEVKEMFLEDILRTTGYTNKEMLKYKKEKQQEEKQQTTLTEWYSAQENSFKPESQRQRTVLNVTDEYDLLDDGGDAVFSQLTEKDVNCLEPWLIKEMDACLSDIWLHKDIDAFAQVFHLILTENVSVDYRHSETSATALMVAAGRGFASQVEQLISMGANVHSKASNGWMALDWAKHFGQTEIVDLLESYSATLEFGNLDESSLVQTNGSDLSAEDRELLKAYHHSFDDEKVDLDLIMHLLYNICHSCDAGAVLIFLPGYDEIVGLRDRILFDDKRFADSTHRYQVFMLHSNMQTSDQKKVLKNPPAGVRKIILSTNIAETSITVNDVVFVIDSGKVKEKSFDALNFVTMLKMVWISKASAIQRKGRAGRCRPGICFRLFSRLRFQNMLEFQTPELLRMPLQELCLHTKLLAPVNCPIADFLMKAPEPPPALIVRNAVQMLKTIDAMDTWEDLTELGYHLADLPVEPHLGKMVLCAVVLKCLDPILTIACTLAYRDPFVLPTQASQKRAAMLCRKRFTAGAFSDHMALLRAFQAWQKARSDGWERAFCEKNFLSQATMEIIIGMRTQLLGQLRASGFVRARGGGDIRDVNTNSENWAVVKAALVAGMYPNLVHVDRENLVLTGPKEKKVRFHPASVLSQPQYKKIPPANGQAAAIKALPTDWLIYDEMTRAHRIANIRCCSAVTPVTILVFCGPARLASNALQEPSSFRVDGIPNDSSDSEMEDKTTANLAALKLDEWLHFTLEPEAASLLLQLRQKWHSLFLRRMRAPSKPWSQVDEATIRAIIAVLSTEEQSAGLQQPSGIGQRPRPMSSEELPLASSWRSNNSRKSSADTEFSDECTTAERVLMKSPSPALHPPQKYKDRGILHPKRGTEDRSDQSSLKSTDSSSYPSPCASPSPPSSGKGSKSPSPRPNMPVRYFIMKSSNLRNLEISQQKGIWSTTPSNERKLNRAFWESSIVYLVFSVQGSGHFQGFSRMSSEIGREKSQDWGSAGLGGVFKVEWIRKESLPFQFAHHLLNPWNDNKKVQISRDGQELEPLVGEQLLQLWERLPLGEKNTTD
UniProt Q8N1B4, 101-125: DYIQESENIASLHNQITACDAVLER

This is one part of the list. The data scatter; read single values as rough.

Compound in the first assay: ClCC(=O)N[C@@H]1CCCc2ccccc12
Briefly: log2 mean competition ratio of IA-DTB cysteine labelling (DMSO/compound) (log2 ratio); higher = stronger cysteine engagement by compound. Particulars: 50 µM; treatment time: 4 h; cell line lysate: HEK293T. As for the experimental part:
(§1)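 IA-DTB competitive cysteine chemoproteomics in HEK293T RIPA lysate. Lysates were treated with compound 29 or 30 at 50 or 200 µM for 4 h, then IA-DTB (500 µM, 1 h), trypsin-digested, NeutrAvidin-enriched and analysed by diaPASEF. Competition ratio = intensity DMSO / intensity compound (n=4 treated, n=64 DMSO); binding: mean log2 CR ≥ 1 and p ≤ 0.05 plus QC filters. Target is the cysteine site.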
On to WDR3 C554 (UniProt Q9UNX4), for which the “log2 mean competition ratio” value is 0.0235.

Regarding WDR75 C100 (UniProt Q8IWA0), the “log2 mean competition ratio” value worked out at 0.0413.

Take WASHC2C C828: the “log2 mean competition ratio” value came to 0.0104.

Turning to VPS53 C764 (UniProt Q5VIR6), the “log2 mean competition ratio” value was -0.0668.

Take WDR1 C225 (UniProt O75083): the “log2 mean competition ratio” value is -0.132.

As to WDFY3 C1436 (UniProt Q8IZQ1), the “log2 mean competition ratio” value was -0.289.

Turning to YES1 C248 (UniProt P07947), the “log2 mean competition ratio” value was -0.239.

Turning to ZC3H3 C338 (UniProt Q8IXZ2), the “log2 mean competition ratio” value is -0.0782.

On to VPS8 C15 (UniProt Q8N3P4), for which the “log2 mean competition ratio” value is -0.38.

As to WNK2 C1195 (UniProt Q9Y3S1), the “log2 mean competition ratio” value was found to be 0.0301.

As to VWA8 C444 (UniProt A3KMH1), the “log2 mean competition ratio” value is 0.0035.

As for WDFY3 C1945 (UniProt Q8IZQ1), the “log2 mean competition ratio” value is -0.0938.

Still in this assay, the particulars now being: 200 µM; treatment time: 4 h; cell line lysate: HEK293T.
For ZBTB40 C282 (UniProt Q9NUA8), the “log2 mean competition ratio” value was -0.0689.

In the case of WDR3 C554 (UniProt Q9UNX4), the “log2 mean competition ratio” value was -0.0912.

Take WDR75 C100 (UniProt Q8IWA0): the “log2 mean competition ratio” value was -0.0332.

As for WASHC2C C828, the “log2 mean competition ratio” value was -0.0924.

On to VPS53 C764 (UniProt Q5VIR6), for which the “log2 mean competition ratio” value is -0.167.

As to WDR1 C225 (UniProt O75083), the “log2 mean competition ratio” value came to 0.0708.

On to WDFY3 C1436 (UniProt Q8IZQ1), for which the “log2 mean competition ratio” value was -0.163.

Turning to WDR33 C220 (UniProt Q9C0J8), the “log2 mean competition ratio” value was -0.0935.

For YES1 C248 (UniProt P07947), the “log2 mean competition ratio” value was determined as 0.0938.

As to ZC3H14 C261 (UniProt Q6PJT7), the “log2 mean competition ratio” value stood at 0.121.

For VPS8 C15 (UniProt Q8N3P4), the “log2 mean competition ratio” value came out at 0.026.

Consider WNK2 C1195 (UniProt Q9Y3S1), for which the “log2 mean competition ratio” value was -0.202.

Turning to VWA8 C444 (UniProt A3KMH1), the “log2 mean competition ratio” value came to 0.0508.

WDFY3 C1945 (UniProt Q8IZQ1): the “log2 mean competition ratio” value was 0.00107.

Compound in the next assay: ClCC(=O)N[C@H]1CCCc2ccccc12
Described as above. Particulars: 50 µM; treatment time: 4 h; cell line lysate: HEK293T. As for the experimental part:
as §1
As for WLS C71 (UniProt Q5T9L3), the “log2 mean competition ratio” value was found to be 0.171.

For XRN1 C398 (UniProt Q8IZH2), the “log2 mean competition ratio” value was determined as 0.0715.

On to ZBTB40 C282 (UniProt Q9NUA8), for which the “log2 mean competition ratio” value worked out at 0.00703.

WDR43 C380 (UniProt Q15061): the “log2 mean competition ratio” value is 0.178.

As to WDR3 C554 (UniProt Q9UNX4), the “log2 mean competition ratio” value was 0.15.

With WDR26 C238, the “log2 mean competition ratio” value was found to be 0.192.

Consider WDR75 C100 (UniProt Q8IWA0), for which the “log2 mean competition ratio” value was determined as 0.0668.

On to VRK1 C220 (UniProt Q99986), for which the “log2 mean competition ratio” value was -0.356.

Regarding WASHC2C C828, the “log2 mean competition ratio” value is -0.221.

With WDR62 C599 (UniProt O43379), the “log2 mean competition ratio” value was -0.336.

As to WDR62 C647 (UniProt O43379), the “log2 mean competition ratio” value was found to be 0.156.

Consider XPO4 C54 (UniProt Q9C0E2), for which the “log2 mean competition ratio” value is -0.106.

On to VPS53 C764 (UniProt Q5VIR6), for which the “log2 mean competition ratio” value is -0.161.

Turning to WDR1 C225 (UniProt O75083), the “log2 mean competition ratio” value is -0.166.

In the case of VPS53 C242 (UniProt Q5VIR6), the “log2 mean competition ratio” value was -0.294.

Turning to WDFY3 C1436 (UniProt Q8IZQ1), the “log2 mean competition ratio” value is 0.266.

On to WDR33 C220 (UniProt Q9C0J8), for which the “log2 mean competition ratio” value was -0.185.

For YJU2 C46 (UniProt Q9BW85), the “log2 mean competition ratio” value was determined as 0.0558.

With YDJC C18 (UniProt A8MPS7), the “log2 mean competition ratio” value worked out at 0.0966.

As for YTHDC2 C1211 (UniProt Q9H6S0), the “log2 mean competition ratio” value is -0.259.

As to XRCC6 C398 (UniProt P12956), the “log2 mean competition ratio” value was -0.121.

As for YES1 C248 (UniProt P07947), the “log2 mean competition ratio” value was -0.465.

Turning to YEATS2 C1173 (UniProt Q9ULM3), the “log2 mean competition ratio” value is -0.0405.

As for ZC3H14 C261 (UniProt Q6PJT7), the “log2 mean competition ratio” value turned out to be 0.858.

For the target ZC3H3 C338 (UniProt Q8IXZ2), the “log2 mean competition ratio” value was -0.0988.

On to WDR81 C215 (UniProt Q562E7), for which the “log2 mean competition ratio” value stood at 0.362.

In the case of VPS8 C15 (UniProt Q8N3P4), the “log2 mean competition ratio” value was -0.3.

For YARS1 C519, the “log2 mean competition ratio” value amounted to 0.158.

Regarding YTHDC2 C245 (UniProt Q9H6S0), the “log2 mean competition ratio” value is 0.353.

As for VPS8 C974 (UniProt Q8N3P4), the “log2 mean competition ratio” value is 0.184.

Consider WNK2 C1195 (UniProt Q9Y3S1), for which the “log2 mean competition ratio” value was 0.119.

For the target WTAP C90 (UniProt Q15007), the “log2 mean competition ratio” value is -0.00433.

Consider VWA8 C444 (UniProt A3KMH1), for which the “log2 mean competition ratio” value was -0.306.

Take VPS52 C119 (UniProt Q8N1B4): the “log2 mean competition ratio” value is -0.173.

As for WRN C1367 (UniProt Q14191), the “log2 mean competition ratio” value is -0.02.

Consider WDFY3 C1945 (UniProt Q8IZQ1), for which the “log2 mean competition ratio” value was -0.371.

Still in this assay, the particulars now being: 200 µM; treatment time: 4 h; cell line lysate: HEK293T.
For WLS C71 (UniProt Q5T9L3), the “log2 mean competition ratio” value was -0.0154.

In the case of XRN1 C398 (UniProt Q8IZH2), the “log2 mean competition ratio” value was -0.331.

With ZBTB40 C282 (UniProt Q9NUA8), the “log2 mean competition ratio” value is -0.434.

For the target WDR43 C380 (UniProt Q15061), the “log2 mean competition ratio” value amounted to 0.00926.

Take WDR3 C554 (UniProt Q9UNX4): the “log2 mean competition ratio” value was -0.298.

WDR26 C238: the “log2 mean competition ratio” value was -0.128.

As for WDR75 C100 (UniProt Q8IWA0), the “log2 mean competition ratio” value is -0.033.

VRK1 C220 (UniProt Q99986): the “log2 mean competition ratio” value came to 0.169.

For WASHC2C C828, the “log2 mean competition ratio” value is -0.00983.

Regarding WDR62 C599 (UniProt O43379), the “log2 mean competition ratio” value stood at 0.176.

Consider WDR62 C647 (UniProt O43379), for which the “log2 mean competition ratio” value was -0.0431.

For XPO4 C54 (UniProt Q9C0E2), the “log2 mean competition ratio” value was -0.0188.

As for VPS53 C764 (UniProt Q5VIR6), the “log2 mean competition ratio” value was -0.00988.

Turning to WDR1 C225 (UniProt O75083), the “log2 mean competition ratio” value was -0.0396.

Take VPS53 C242 (UniProt Q5VIR6): the “log2 mean competition ratio” value was found to be 0.0655.

As for WDFY3 C1436 (UniProt Q8IZQ1), the “log2 mean competition ratio” value was -0.282.

VPS35L C20 (UniProt Q7Z3J2): the “log2 mean competition ratio” value was -0.107.

Regarding WDR33 C220 (UniProt Q9C0J8), the “log2 mean competition ratio” value is -0.00463.

With YJU2 C46 (UniProt Q9BW85), the “log2 mean competition ratio” value is -0.00287.

As for YDJC C18 (UniProt A8MPS7), the “log2 mean competition ratio” value is 0.0935.

Consider YTHDC2 C1211 (UniProt Q9H6S0), for which the “log2 mean competition ratio” value stood at 0.381.

For XRCC6 C398 (UniProt P12956), the “log2 mean competition ratio” value was 0.193.

For YES1 C248 (UniProt P07947), the “log2 mean competition ratio” value was -0.0283.

As to YEATS2 C1173 (UniProt Q9ULM3), the “log2 mean competition ratio” value stood at 0.27.

Consider ZC3H14 C261 (UniProt Q6PJT7), for which the “log2 mean competition ratio” value was -0.066.

With ZC3H3 C338 (UniProt Q8IXZ2), the “log2 mean competition ratio” value was -0.0355.

For the target WDR81 C215 (UniProt Q562E7), the “log2 mean competition ratio” value stood at 0.0348.

As to VPS8 C15 (UniProt Q8N3P4), the “log2 mean competition ratio” value is 0.058.

Turning to YARS1 C519, the “log2 mean competition ratio” value came out at 0.0735.

Take YTHDC2 C245 (UniProt Q9H6S0): the “log2 mean competition ratio” value was 0.125.

Take VPS8 C974 (UniProt Q8N3P4): the “log2 mean competition ratio” value turned out to be 0.858.

WNK2 C1195 (UniProt Q9Y3S1): the “log2 mean competition ratio” value is 0.254.

For the target WTAP C90 (UniProt Q15007), the “log2 mean competition ratio” value is -0.218.

Consider VWA8 C444 (UniProt A3KMH1), for which the “log2 mean competition ratio” value is 0.109.

Take VPS52 C119 (UniProt Q8N1B4): the “log2 mean competition ratio” value was -0.187.

For the target WRN C1367 (UniProt Q14191), the “log2 mean competition ratio” value was -0.0156.

As to WDFY3 C1945 (UniProt Q8IZQ1), the “log2 mean competition ratio” value is -0.141.
